Laboratory results: publication PMC5540925
No constants are given. Whether binding was seen depends on the method and setting. Binding seen in cells or lysates may run through a third protein. Some entries that bind do so weakly or less than the wild type. Where a sequence is shown, tags or fusion partners need not be part of it.

Biological target: T1, Flag-Kaiso (human) (UniProt Q86T24)
T1 sequence: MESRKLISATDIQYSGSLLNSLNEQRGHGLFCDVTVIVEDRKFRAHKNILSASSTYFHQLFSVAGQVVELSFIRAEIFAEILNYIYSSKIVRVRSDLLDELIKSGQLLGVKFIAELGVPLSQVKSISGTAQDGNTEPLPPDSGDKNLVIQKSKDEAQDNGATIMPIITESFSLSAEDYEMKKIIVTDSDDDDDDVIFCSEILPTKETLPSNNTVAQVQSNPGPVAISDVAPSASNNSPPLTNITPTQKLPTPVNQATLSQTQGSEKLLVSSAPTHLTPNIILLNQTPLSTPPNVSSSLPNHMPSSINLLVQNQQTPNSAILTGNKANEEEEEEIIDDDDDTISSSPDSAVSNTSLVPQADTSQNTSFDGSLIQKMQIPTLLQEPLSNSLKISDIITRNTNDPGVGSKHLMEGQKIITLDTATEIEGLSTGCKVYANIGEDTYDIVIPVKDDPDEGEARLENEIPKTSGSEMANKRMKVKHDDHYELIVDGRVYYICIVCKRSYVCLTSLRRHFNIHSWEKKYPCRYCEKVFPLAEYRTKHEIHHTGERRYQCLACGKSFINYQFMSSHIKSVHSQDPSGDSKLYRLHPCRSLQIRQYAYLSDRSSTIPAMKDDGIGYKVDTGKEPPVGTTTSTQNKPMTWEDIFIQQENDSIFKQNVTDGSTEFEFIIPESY
Experiment: co-IP; HUVECs and HMEC-1s co-transfected with pCMV-flag-Kaiso and pCMV-myc-p120ctn, 48 h; Pierce Co-IP kit, pre-cleared lysate incubated with anti-FLAG or anti-Myc antibody-coupled resin at 4 °C overnight; eluate examined by Western blot

B1: Myc-p120ctn (protein, UniProt O60716-1 1-968)
chain: MDDSEVESTASILASVKEQEAQFEKLTRALEEERRHVSAQLERVRVSPQDANPLMANGTLTRRHQNGRFVGDADLERQKFSDLKLNGPQDHSHLLYSTIPRMQEPGQIVETYTEEDPEGAMSVVSVETSDDGTTRRTETTVKKVVKTVTTRTVQPVAMGPDGLPVDASSVSNNYIQTLGRDFRKNGNGGPGPYVGQAGTATLPRNFHYPPDGYSRHYEDGYPGGSDNYGSLSRVTRIEERYRPSMEGYRAPSRQDVYGPQPQVRVGGSSVDLHRFHPEPYGLEDDQRSMGYDDLDYGMMSDYGTARRTGTPSDPRRRLRSYEDMIGEEVPSDQYYWAPLAQHERGSLASLDSLRKGGPPPPNWRQPELPEVIAMLGFRLDAVKSNAAAYLQHLCYRNDKVKTDVRKLKGIPVLVGLLDHPKKEVHLGACGALKNISFGRDQDNKIAIKNCDGVPALVRLLRKARDMDLTEVITGTLWNLSSHDSIKMEIVDHALHALTDEVIIPHSGWEREPNEDCKPRHIEWESVLTNTAGCLRNVSSERSEARRKLRECDGLVDALIFIVQAEIGQKDSDSKLVENCVCLLRNLSYQVHREIPQAERYQEAAPNVANNTGPHAASCFGAKKGKDEWFSRGKKPIEDPANDTVDFPKRTSPARGYELLFQPEVVRIYISLLKESKTPAILEASAGAIQNLCAGRWTYGRYIRSALRQEKALSAIADLLTNEHERVVKAASGALRNLAVDARNKELIGKHAIPNLVKNLPGGQQNSSWNFSEDTVISILNTINEVIAENLEAAKKLRETQGIEKLVLINKSGNRSEKEVRAAALVLQTIWGYKELRKPLEKEGWKKSDFQVNLNNASRSQSSHSYDDSTLPLIDRNQKSDKKPDREEIQMSNMGSNTKSLDNNYSTPNERGDHNRTLDRSGDLGDMEPLKGTTPLMQDEGQESLEEELDVLVLDDEGGQVSYPSMQKI
binding: binds
